Test results reported in publication PMC11620747.
These are yes or no findings as the source states them, for the method shown. In cells and extracts the contact can be indirect. A yes stands for co-enrichment or nearness to the bait. Other partners may have been found.

By UniProt entry, the sequences of proteins in these tests, tags left out. Where a name states a change or a piece, a line headed by the entry shows the natural chain unless it says otherwise.
UniProt Q8IBB0: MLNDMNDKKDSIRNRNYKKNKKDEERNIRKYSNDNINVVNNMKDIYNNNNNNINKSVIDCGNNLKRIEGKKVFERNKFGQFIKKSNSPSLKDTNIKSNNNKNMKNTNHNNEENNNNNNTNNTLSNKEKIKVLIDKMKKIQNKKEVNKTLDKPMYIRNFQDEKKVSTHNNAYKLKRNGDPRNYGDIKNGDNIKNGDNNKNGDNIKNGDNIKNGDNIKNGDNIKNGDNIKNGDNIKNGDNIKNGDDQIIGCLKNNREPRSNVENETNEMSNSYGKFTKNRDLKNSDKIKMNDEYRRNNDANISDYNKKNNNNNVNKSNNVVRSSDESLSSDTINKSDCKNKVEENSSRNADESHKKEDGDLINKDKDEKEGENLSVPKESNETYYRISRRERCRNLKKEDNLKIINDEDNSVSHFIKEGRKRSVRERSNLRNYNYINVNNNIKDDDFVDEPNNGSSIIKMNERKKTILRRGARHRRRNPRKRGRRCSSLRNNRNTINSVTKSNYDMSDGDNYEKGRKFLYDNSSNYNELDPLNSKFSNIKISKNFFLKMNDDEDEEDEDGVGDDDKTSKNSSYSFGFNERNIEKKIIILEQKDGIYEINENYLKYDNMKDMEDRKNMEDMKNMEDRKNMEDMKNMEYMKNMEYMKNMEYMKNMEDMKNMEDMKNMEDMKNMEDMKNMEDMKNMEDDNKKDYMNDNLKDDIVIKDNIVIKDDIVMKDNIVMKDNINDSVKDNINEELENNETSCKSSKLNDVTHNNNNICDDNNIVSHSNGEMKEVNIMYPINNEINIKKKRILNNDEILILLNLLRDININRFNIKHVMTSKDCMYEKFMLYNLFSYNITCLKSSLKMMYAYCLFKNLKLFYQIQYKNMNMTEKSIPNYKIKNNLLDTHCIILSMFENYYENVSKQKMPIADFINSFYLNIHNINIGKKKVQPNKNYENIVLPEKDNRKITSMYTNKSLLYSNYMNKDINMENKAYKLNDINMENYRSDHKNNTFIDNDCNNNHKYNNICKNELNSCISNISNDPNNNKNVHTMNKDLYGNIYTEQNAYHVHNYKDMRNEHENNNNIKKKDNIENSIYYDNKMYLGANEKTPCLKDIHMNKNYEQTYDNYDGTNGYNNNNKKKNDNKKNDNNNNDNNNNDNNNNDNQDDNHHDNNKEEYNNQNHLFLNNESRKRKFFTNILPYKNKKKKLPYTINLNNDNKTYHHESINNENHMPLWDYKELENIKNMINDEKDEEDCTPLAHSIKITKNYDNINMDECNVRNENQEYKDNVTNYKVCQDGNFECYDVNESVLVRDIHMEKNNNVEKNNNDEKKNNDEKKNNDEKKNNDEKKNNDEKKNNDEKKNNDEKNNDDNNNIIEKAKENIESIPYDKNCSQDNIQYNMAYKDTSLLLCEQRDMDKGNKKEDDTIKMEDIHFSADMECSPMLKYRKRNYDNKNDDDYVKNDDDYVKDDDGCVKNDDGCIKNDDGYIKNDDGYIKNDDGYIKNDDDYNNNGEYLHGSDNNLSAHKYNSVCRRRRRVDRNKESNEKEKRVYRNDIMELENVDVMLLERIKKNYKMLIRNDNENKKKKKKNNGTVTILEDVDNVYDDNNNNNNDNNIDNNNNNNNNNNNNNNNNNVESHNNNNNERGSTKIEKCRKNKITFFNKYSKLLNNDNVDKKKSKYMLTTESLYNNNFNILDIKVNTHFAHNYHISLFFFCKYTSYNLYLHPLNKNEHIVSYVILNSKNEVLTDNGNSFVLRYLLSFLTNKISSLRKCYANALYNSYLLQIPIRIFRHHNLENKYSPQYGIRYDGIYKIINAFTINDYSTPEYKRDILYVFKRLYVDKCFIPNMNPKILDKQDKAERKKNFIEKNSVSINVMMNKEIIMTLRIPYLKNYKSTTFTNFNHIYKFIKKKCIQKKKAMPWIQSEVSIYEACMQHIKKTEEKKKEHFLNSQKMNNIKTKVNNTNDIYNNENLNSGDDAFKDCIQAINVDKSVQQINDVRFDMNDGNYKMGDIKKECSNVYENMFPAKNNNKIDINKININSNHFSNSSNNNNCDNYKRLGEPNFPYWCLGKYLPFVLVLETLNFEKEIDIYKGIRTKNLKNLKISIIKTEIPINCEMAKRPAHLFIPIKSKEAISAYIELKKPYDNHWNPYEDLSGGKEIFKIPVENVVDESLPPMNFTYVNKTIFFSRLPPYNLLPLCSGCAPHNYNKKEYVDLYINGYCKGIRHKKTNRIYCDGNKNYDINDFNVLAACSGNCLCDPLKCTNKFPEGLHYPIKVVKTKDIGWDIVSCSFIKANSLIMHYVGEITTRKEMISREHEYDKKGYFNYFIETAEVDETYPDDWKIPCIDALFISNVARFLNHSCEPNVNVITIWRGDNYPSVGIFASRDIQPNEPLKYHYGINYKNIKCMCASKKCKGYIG
UniProt C6KSV9: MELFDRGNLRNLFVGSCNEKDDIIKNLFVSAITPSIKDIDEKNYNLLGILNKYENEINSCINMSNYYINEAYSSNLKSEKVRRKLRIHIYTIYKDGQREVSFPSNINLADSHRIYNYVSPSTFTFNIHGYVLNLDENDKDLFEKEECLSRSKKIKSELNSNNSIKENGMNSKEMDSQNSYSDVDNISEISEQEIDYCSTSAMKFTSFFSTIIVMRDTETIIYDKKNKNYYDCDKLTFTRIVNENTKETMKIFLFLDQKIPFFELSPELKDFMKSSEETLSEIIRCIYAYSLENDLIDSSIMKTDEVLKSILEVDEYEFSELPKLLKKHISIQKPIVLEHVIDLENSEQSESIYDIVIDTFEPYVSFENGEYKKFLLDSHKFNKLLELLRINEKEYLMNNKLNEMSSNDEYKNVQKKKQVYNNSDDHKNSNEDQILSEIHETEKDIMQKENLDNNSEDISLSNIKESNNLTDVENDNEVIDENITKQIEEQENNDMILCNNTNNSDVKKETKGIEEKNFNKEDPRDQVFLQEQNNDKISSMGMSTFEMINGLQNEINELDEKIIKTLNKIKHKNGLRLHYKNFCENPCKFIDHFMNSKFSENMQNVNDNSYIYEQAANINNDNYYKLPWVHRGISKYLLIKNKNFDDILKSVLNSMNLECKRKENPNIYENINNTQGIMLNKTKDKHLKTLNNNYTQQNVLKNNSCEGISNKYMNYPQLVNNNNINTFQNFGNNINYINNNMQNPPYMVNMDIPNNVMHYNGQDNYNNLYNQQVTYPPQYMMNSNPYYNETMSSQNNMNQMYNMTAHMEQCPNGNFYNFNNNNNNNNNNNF
UniProt Q8IIS4: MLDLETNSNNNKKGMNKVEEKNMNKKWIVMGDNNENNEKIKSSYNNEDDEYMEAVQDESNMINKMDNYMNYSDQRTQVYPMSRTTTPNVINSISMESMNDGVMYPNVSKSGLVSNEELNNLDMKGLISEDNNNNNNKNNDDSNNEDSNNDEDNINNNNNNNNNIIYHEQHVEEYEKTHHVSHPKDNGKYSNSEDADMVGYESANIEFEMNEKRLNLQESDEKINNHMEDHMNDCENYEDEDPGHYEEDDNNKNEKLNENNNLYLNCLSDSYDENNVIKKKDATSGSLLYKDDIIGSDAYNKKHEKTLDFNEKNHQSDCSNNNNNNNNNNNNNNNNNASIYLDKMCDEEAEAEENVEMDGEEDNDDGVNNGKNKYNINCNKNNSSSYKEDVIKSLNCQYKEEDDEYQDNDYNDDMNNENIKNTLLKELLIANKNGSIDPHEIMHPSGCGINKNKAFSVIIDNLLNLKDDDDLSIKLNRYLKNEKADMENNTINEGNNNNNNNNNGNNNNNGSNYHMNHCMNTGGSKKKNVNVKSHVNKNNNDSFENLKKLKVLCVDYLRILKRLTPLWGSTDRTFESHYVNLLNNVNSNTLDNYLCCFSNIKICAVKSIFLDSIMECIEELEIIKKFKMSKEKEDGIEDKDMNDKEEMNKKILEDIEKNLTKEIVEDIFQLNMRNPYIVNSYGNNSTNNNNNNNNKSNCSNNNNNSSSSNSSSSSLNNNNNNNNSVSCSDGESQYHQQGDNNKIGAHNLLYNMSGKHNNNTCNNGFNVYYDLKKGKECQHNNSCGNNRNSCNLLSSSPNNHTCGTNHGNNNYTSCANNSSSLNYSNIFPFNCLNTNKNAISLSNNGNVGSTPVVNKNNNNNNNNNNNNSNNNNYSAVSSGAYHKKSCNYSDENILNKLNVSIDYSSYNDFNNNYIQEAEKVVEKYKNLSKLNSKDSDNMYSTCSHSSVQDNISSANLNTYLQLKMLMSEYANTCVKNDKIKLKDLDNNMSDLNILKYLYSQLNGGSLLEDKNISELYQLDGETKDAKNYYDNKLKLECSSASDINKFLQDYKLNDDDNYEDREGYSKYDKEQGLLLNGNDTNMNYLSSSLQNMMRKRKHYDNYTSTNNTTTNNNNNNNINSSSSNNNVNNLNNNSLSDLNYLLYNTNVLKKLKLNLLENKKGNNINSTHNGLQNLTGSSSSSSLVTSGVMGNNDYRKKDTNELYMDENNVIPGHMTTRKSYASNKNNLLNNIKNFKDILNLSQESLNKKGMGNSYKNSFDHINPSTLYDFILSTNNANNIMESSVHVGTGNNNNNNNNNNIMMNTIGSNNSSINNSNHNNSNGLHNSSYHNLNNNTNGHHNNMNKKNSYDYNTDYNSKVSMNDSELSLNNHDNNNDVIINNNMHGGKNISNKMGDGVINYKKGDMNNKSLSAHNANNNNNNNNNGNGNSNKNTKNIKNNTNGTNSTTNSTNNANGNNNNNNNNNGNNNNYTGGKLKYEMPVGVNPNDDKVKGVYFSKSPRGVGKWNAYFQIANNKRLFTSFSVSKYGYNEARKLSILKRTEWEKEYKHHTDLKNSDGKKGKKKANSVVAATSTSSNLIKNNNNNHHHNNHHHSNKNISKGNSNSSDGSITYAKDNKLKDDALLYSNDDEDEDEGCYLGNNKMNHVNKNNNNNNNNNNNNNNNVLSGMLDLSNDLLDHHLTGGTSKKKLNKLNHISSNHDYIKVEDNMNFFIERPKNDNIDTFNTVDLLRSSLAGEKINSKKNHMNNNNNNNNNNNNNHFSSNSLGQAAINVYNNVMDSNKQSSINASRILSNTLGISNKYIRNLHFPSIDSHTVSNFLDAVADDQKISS
UniProt Q8IJJ5: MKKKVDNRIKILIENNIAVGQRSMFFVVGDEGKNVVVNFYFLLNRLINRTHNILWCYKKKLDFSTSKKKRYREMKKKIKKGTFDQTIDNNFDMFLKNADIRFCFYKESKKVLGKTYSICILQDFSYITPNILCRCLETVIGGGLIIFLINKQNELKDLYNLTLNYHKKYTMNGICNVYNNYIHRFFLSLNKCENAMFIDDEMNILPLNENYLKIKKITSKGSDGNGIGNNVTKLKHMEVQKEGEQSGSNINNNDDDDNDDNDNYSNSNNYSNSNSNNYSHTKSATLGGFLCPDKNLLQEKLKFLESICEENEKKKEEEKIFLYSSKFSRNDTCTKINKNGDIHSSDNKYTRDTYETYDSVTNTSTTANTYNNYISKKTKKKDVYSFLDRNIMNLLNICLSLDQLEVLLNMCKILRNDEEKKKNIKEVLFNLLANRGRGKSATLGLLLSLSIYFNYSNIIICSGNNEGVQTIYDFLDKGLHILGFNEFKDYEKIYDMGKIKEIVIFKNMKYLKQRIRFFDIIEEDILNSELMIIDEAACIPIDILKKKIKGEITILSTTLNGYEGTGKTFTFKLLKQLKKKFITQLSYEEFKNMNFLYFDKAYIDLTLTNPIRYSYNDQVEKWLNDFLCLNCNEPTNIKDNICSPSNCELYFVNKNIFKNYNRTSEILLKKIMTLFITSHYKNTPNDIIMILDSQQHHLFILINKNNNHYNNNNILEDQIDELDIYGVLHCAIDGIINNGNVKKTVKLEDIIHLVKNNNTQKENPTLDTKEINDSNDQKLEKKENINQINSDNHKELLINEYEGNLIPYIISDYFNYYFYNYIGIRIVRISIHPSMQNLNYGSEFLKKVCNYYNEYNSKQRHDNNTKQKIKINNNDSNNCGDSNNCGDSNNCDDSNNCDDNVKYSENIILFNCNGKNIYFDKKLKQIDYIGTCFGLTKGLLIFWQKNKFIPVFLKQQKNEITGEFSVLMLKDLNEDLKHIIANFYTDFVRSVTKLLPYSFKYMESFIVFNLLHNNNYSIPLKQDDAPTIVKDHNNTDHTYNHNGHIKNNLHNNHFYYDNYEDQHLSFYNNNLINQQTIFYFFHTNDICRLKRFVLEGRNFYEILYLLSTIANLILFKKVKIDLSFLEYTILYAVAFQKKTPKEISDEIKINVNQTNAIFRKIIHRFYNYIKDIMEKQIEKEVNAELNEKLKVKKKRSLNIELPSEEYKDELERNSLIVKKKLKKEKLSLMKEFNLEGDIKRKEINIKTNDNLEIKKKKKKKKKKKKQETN

Target: PfMORC-HA (Plasmodium falciparum Microrchidia protein, 3xHA-tagged) (P. falciparum) (UniProt Q8IKF6)
Test: affinity purification with mass spectrometry; anti-HA immunoprecipitation (Dynabeads Protein A) from lysate of mid- to late-stage asexual PfMORC-HA parasites, parental line as control; IP buffer 50 mM Tris-HCl pH 7.5, 300 mM NaCl, 0.5 mM EDTA, 0.5 mM EGTA, 0.5% Triton X-100; 4 °C; MudPIT; QPROT log2 FC ≥2 and Z statistic >5

Substance	binding
PHD2 (from UniProt Q8ILC9)	binds
SET3 (from UniProt Q8IBB0) (enzyme)	binds
SWIB/MDM2 domain-containing protein (from UniProt C6KSV9)	binds

Next, values leading:

binding	Substance
binds	AP2-P (from UniProt Q8IIS4)
binds	BDP3 (from UniProt Q8I240)
binds	N-acetyltransferase (PF3D7_1020700) (from UniProt Q8IJJ5) (enzyme)
